Source: EP2573105B1, “p16INK4a derived peptides for prophylaxis and therapy of HPV-associated tumors and other p16INK4a expressing tumors” (Ruprecht-Karls-Universität Heidelberg, priority 2011, dated 2013)
Part of at least one peptide drawing is inferred or uncertain, most often the ends. Some entries repeat one wording, which the source may state once for all of them. Ends that are not written are not given here.

Key:
[1] = system: Peripheral blood mononuclear cells (PBMCs); experiment: BrdU proliferation assay of PBMCs incubated with p16INK4a peptides; type: cell-based, human; conditions: PBMCs from women with CIN2/3
Protocol: Peripheral blood mononuclear cells (PBMCs) from 13 women with p16^INK4a-expressing high grade cervical dysplasia (CIN2/3) were incubated with p16^INK4a peptides (Table 1) to determine the proliferative capacity of the immune cells by applying a BrdU assay as a global measure for lymphoproliferative potential after challenge with the p16^INK4a peptides. The BrdU-assay is a colorimetric immunoassay applied for the quantification of cell proliferation based on the measurement of the thymidine analogue 5-bromo-2'-deoxyuridine incorporation during DNA synthesis. PBMCs in IMDM medium supplemented with 10% human serum were seeded in a 96-well-microtiter-plate (flat bottom) at a density of 150.000 cells/50µl/well. Cells in each 4 replicate wells were incubated in the presence of the seven p16INK4a peptides (Table 1), tetanus toxoid (20 ng/ml, Calbiochem, La Jolla, CA) and mitogen PHA-L (5 µg/ml, Roche, Mannheim, Germany) as positive controls and no antigen as negative control for 6 days at 37°C, 5% CO2. On day 6, 10 µl/well of BrdU labelling solution (all BrdU assay reagents were used from the Cell Proliferation ELISA, BrdU (colorimetric) by Roche, Mannheim, Germany) diluted 1:100 in IMDM medium + 10% human serum were added to each well and incubated for an additional period of 18 hours at 37°C, 5% CO2. On day 7, the plate was centrifuged at 1200 rpm for 10 min and 50 µl of the supernatant was removed and transferred to a new V-bottom plate to be finally stored at -80°C for cytokine analysis. The remaining cells were dried by using a hair dryer for about 15 minutes and 150 µl/well FixDenat solution were added to the cells and incubated for 30 minutes at room temperature before removing FixDenat by flicking off and tapping carefully. 100 µl/well anti-BrdU-POD working solution were added and incubated for 90 minutes at room temperature, then removed and replaced by 100 µl TMB substrate, which was incubated for 30 minutes at room temperature. The enzyme reaction was stopped by adding 25 µl/well 1N H2SO4 and optical density (OD) was measured at 450 nm (reference wavelength 620 nm). Cut-off for positive reactions was set as three times standard deviation of ODs in the negative control wells without antigen. […] Overall the pattern of response inducing peptides was heterogenic, indicating various T cell epitopes within the p16 antigen.

T cells [2] = experiment: In vitro priming of healthy donor T cells, interferon gamma ELISpot; type: cell-based, human; conditions: for spot count, ELISpot (interferon gamma): after stimulation of donor T cells, compared to day 0 (Figure 1 B); for interferon gamma secretion in the ELISpot: day 35, after last stimulation, tested against target cells pulsed with the respective peptide
Caski = experiment: Chromium release assay, Caski as target; type: cell-based, human; conditions: CD8+ T cells of a cervical cancer patient reactive against the peptide; HPV and p16^INK4a positive
T cells [3] = experiment: Interferon gamma ELISpot with patient T cells after short in vitro presensitization; type: cell-based, human; conditions: 23 patients tested; background subtracted (2 times the spots in the negative control well + 2 standard deviations)
HeLa = experiment: Chromium release assay, HeLa as target; type: cell-based, human; conditions: CD8+ T cells of a cervical cancer patient reactive against the peptide; HPV and p16^INK4a positive
HLA-matched B cells = experiment: Chromium release assay, peptide loaded B cells as targets; type: cell-based, human; conditions: CD8+ T cells of a cervical cancer patient reactive against the peptide, no lysis of same B cells without peptide
sera = experiment: Peptide ELISA for serum antibodies against the peptide; type: binding, human; conditions: sera 1:100, cut off background normalized optical density of 0.03

| Compound | response (proliferation, BrdU assay) ([1]; first reacting patient) | spot count, ELISpot (interferon gamma) (T cells [2]) | interferon gamma secretion in the ELISpot (T cells [2]) | response (proliferation, BrdU assay) ([1]; third reacting patient) | response (proliferation, BrdU assay) ([1]; second reacting patient) | other results |
| --- | --- | --- | --- | --- | --- | --- |
| CC(C)C[C@H](NC(=O)[C@H](CCCNC(=N)N)NC(=O)[C@H](C)NC(=O)CNC(=O)[C@H](C)NC(=O)[C@H](CCCNC(=N)N)NC(=O)[C@H](Cc1c[nH]cn1)NC(=O)[C@H](CC(C)C)NC(=O)[C@@H](NC(=O)[C@@H](NC(=O)[C@H](CC(C)C)NC(=O)[C@@H](NC(=O)[C@H](CC(=O)O)NC(=O)[C@H](CC(C)C)NC(=O)[C@H](Cc1ccccc1)NC(=O)CNC(=O)[C@H](CCC(=O)O)NC(=O)[C@H](CCCNC(=N)N)NC(=O)[C@H](C)NC(=O)[C@H](C)NC(=O)[C@H](CC(=O)O)NC(=O)[C@H](Cc1c[nH]cn1)NC(=O)[C@@H](NC(=O)[C@@H]1CCCN1C(=O)[C@H](CCCNC(=N)N)NC(=O)[C@@H](NC(=O)[C@H](CC(C)C)NC(=O)[C@@H](NC(=O)[C@H](C)NC(=O)[C@@H]1CCCN1C(=O)[C@H](CC(=O)O)NC(=O)[C@H](C)N)[C@@H](C)O)[C@@H](C)O)C(C)C)[C@@H](C)O)C(C)C)C(C)C)C(=O)O [p16INK4a_73-104] | showed response | increased spot count | increased interferon gamma secretion | – | – | – |
| MEPAAGSSMEPSADWLATAAARGRV [p16INK4a_1-25] | – | – | – | showed response | – | – |
| VMMMGSARVAELLLLHGAEPNCADPATLTR [p16INK4a_51-80] | – | increased spot count | increased interferon gamma secretion | – | showed response | – |
| TAAARGRVEEVRALLEAGALPNAPNSY [p16INK4a_18-44] | showed response | – | – | – | – | – |
| HRAGARLDVRDAWGRLPVDLAEELGHRDVAR [p16INK4a_98-128] | – | – | – | – | showed response | – |
| LPNAPNSYGRRPIQVMMMGSARVAELL [p16INK4a_37-63] | showed response | increased spot count | increased interferon gamma secretion | showed response | – | lysis of cervical cancer cell line Caski (Caski): able to lyse; cervical cancer patients with T cells (CD4 or CD8) reacting against the peptide (T cells [3]): 7; lysis of cervical cancer cell line HeLa (HeLa): able to lyse; lysis of peptide loaded HLA-matched B cells (HLA-matched B cells): able to lyse; lysis of peptide loaded HLA-matched B cells (HLA-matched B cells; listed as p161NK4a_37-63): induce lysis; tested sera that had antibodies against the peptide (positive/total) (sera): 56/374; tested sera that had antibodies against the peptide (sera; 374 sera): 15% |
